Laboratory results from publication PMC5976236.
Results are given in words; binding and its absence hold for the method and conditions named. Some entries that bind do so weakly or less than the wild type.

By UniProt entry, the sequences of proteins in these tests, tags left out. Residues count along the entry.
UniProt Q80Z19, residues 21-4576: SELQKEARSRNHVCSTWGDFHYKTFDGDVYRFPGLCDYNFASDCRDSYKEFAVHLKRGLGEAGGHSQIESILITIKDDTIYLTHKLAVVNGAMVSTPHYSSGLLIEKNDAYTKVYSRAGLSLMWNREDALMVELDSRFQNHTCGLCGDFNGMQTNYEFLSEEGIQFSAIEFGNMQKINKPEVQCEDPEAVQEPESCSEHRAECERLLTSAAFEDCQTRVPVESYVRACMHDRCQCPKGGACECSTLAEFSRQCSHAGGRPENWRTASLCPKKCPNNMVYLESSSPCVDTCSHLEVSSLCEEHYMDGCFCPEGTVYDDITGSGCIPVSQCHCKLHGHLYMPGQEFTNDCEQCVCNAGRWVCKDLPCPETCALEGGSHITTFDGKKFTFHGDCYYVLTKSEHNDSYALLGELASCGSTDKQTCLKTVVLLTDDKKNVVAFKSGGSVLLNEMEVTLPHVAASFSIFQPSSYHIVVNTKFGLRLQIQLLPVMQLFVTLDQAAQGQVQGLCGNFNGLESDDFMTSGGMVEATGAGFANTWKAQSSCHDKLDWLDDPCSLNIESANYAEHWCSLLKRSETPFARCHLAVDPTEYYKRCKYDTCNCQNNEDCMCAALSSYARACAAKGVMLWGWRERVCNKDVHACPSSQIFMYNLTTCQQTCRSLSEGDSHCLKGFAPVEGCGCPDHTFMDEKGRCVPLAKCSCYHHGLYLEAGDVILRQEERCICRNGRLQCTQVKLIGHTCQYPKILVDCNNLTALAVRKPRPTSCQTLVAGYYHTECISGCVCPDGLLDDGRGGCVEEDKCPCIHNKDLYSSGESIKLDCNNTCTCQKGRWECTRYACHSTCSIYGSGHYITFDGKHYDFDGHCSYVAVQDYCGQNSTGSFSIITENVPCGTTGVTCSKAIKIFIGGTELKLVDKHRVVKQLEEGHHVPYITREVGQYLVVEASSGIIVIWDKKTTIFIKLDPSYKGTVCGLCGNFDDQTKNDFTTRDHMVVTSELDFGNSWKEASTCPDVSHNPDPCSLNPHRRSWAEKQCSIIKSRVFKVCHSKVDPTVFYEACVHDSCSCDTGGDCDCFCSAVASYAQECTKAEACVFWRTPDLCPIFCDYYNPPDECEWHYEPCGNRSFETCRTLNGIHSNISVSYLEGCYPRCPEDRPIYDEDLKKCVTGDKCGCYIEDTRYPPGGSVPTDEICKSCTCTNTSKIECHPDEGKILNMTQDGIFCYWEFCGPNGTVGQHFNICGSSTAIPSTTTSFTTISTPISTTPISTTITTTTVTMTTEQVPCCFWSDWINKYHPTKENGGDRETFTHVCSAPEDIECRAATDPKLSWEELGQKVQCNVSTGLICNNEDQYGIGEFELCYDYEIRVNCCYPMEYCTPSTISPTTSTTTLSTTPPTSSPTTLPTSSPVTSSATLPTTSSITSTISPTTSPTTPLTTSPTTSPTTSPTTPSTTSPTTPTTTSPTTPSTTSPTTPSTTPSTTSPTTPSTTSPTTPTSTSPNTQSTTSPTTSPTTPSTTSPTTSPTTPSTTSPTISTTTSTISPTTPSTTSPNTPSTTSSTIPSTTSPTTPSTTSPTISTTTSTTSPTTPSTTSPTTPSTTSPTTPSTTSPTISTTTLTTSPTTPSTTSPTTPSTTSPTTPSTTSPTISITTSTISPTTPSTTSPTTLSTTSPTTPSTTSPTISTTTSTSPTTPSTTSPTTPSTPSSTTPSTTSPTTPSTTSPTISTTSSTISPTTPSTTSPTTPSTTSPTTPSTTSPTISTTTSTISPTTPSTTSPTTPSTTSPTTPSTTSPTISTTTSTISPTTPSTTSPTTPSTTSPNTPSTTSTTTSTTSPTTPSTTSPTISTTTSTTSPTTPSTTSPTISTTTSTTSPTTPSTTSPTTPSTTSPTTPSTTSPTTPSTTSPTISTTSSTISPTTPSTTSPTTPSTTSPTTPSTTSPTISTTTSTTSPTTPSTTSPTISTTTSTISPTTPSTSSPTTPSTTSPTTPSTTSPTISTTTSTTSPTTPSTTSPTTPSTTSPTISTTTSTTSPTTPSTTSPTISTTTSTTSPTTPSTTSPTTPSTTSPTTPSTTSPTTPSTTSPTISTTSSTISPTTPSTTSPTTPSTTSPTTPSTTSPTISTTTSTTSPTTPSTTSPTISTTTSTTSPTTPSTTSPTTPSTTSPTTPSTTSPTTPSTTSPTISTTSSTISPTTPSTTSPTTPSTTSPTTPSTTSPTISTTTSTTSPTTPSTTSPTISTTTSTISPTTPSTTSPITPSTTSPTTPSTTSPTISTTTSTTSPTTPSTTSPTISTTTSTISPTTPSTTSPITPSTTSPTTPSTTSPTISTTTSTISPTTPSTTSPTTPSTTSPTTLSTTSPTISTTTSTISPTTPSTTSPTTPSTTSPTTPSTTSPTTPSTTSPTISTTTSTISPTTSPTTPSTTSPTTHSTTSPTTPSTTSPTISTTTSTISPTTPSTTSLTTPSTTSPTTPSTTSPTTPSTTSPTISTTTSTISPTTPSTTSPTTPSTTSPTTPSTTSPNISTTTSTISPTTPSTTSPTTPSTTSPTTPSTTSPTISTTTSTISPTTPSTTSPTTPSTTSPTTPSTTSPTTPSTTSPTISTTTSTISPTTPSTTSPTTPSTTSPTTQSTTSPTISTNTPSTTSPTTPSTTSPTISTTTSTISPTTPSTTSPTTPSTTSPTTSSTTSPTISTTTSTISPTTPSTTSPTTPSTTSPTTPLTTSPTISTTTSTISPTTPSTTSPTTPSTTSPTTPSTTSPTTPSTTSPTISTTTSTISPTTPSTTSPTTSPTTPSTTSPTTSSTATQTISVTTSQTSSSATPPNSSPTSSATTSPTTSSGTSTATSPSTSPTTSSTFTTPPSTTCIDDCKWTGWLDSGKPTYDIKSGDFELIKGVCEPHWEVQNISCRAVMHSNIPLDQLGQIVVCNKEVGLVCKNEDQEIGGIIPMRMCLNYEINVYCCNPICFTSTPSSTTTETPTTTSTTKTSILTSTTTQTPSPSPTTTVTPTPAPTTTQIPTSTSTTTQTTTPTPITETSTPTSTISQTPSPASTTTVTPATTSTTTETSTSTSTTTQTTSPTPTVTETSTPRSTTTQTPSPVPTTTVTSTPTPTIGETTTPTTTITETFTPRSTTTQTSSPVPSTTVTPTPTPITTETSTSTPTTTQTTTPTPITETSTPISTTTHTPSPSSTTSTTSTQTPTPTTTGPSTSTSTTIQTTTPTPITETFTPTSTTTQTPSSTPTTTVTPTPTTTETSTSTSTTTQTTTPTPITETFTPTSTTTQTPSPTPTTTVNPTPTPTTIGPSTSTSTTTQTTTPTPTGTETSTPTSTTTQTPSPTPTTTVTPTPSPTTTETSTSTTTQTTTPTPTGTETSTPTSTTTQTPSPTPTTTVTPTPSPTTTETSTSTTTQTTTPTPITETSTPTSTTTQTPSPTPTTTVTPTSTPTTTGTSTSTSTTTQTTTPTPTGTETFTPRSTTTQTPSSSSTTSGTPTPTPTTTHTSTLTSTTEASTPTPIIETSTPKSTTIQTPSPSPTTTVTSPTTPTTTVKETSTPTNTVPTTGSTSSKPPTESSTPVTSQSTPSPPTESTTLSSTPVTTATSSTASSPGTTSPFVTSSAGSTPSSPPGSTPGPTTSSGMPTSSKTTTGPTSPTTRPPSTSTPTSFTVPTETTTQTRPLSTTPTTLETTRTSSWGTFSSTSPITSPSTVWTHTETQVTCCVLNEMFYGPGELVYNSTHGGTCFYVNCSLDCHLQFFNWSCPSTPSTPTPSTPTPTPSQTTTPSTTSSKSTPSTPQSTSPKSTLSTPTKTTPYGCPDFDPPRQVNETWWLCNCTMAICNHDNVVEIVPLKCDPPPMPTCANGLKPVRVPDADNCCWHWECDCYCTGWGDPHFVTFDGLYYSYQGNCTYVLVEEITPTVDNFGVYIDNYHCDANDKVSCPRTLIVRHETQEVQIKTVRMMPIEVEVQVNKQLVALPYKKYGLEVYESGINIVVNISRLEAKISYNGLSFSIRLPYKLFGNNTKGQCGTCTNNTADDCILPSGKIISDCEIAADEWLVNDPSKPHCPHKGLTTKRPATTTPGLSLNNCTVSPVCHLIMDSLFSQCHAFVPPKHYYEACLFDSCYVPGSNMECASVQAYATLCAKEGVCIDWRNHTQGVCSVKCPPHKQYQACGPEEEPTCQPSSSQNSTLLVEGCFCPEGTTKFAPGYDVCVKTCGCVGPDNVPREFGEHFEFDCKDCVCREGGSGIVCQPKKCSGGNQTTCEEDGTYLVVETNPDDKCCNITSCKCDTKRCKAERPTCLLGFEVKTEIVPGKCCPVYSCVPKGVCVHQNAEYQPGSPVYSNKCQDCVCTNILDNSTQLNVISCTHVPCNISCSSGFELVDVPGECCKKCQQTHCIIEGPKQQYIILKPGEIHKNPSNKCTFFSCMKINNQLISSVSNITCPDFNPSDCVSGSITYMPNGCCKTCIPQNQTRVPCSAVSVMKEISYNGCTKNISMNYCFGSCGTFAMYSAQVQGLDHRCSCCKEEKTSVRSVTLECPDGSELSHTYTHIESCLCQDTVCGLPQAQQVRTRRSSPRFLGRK
UniProt P17931: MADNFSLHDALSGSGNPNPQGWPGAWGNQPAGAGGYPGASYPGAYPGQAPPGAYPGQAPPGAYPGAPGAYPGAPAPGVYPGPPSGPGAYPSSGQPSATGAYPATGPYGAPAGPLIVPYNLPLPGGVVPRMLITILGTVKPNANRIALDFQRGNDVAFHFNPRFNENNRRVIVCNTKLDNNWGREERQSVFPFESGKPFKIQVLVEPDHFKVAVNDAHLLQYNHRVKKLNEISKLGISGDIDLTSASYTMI

Key:
[1] = target: MUC2 from LS174T cells, desialylated and chemically deglycosylated (human (endogenous in LS174T)) (UniProt Q02817); assay: ELISA; mucins coated at 10 μg/ml (100 μl/well), desialylated and deglycosylated in cycles directly in the microplate; Gal-3 incubated 2 h at 37°C, colorimetric reaction; both purified
[2] = target: Muc2 from small intestine of wild-type C57BL/6 mice (mouse (endogenous in C57BL/6 small intestine)) (UniProt Q80Z19); assay: ELISA; mucins adsorbed on a 96-well plate (10 μg/ml in PBS); Gal-3 at 0, 1.25, 2.5, 5, 10 and 20 μg/ml, 2 h at 37°C; detected with anti-Gal-3 and HRP conjugate; both purified

binding [1]: binds
binding [2]: binds
Substance: recombinant human galectin-3 (from UniProt P17931 1-250)
